Experimental data from PMC7067850, “Identification of highly potent and selective inhibitor, TIPTP, of the p22phox-Rubicon axis as a therapeutic agent for rheumatoid arthritis” (Scientific Reports, 2020).
Results are given in words; binding and its absence hold for the method and conditions named. In cells and extracts the contact can be indirect. Some results given as binding are weak or reduced against the parent protein; the word gives no strength.

Protein sequences, listed by entry. Tags and fused reporters are not part of them. Residues count along the entry.
UniProt Q9QUK6, residues 26-835: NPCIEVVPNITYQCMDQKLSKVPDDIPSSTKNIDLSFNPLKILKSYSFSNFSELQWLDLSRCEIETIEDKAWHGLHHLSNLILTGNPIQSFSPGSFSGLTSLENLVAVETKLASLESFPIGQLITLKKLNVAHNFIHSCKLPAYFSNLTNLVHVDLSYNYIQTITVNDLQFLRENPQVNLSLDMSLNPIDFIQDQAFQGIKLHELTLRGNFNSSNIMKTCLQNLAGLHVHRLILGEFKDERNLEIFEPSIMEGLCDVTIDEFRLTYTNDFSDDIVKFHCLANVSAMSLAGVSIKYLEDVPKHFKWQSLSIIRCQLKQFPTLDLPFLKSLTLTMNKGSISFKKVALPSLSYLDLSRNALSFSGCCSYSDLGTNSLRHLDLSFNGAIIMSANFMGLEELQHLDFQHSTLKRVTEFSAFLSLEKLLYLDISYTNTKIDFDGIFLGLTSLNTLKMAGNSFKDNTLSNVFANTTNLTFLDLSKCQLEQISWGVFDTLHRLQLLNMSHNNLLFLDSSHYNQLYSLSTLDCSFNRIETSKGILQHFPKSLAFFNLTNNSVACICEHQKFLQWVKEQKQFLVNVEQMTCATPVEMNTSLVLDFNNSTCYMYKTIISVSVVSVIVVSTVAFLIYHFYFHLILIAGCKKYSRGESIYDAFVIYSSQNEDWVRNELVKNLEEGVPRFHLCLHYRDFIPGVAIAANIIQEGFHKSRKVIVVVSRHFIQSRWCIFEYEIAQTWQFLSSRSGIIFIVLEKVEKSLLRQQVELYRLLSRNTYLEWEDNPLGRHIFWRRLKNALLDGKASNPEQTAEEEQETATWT

T1: p22phox subunit of NADPH oxidase (mouse, endogenous) (mouse (endogenous in synoviocytes of CIA mice, BMDMs, Raw264.7)) (UniProt Q61462)
T1 sequence: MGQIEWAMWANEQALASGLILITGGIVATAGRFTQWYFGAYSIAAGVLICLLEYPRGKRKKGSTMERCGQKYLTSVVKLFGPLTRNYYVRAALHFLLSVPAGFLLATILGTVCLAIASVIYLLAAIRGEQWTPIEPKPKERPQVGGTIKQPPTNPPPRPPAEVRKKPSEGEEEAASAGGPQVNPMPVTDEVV

T2: p22phox (human, endogenous) (human (endogenous in monocytes and in synoviocytes of RA patients)) (UniProt P13498)
T2 sequence: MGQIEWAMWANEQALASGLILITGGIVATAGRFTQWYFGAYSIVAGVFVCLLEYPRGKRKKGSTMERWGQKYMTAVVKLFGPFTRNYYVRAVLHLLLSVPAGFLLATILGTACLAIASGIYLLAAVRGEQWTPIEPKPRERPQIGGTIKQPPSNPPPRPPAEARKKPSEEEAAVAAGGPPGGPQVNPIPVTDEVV


These molecules were tested against T1, p22phox subunit of NADPH oxidase (mouse, endogenous) (mouse (endogenous in synoviocytes of CIA mice, BMDMs, Raw264.7)) (assay: co-IP; endogenous proteins, synovial fluid containing synoviocytes from CIA mice at the indicated times (also from CIA mice treated with TIPTP or vehicle); NP-40 buffer lysates, IP with anti-p22phox or anti-Rubicon, protein A/G agarose, immunoblot).

Row | binding | Molecule
1 | no binding | TLR4 (mouse, endogenous) (from UniProt Q9QUK6 26-835) (receptor)
2 | binds | NOX4 (mouse, endogenous) (protein, UniProt Q9JHI8 1-578) MAVSWRSWLANEGVKHLCLLIWLSLNVLLFWKTFLLYNQGPEYYYIHQMLGLGLCLSRASASVLNLNCSLILLPMCRTVLAYLRGSQKVPSRRTRRLLDKSKTLHITCGVTICIFSGVHVAAHLVNALNFSVNYSEDFLELNAARYQNEDPRKLLFTTIPGLTGVCMVVVLFLMVTASTYAIRVSNYDIFWYTHNLFFVFYMLLLLHVSGGLLKYQTNVDTHPPGCISLNQTSSQNMSIPDYVSEHFHGSLPRGFSKLEDRYQKTLVKICLEEPKFQAHFPQTWIWISGPLCLYCAERLYRCIRSNKPVTIISVINHPSDVMELRMIKENFKARPGQYIILHCPSVSALENHPFTLTMCPTETKATFGVHFKVVGDWTERFRDLLLPPSSQDSEILPFIHSRNYPKLYIDGPFGSPFEESLNYEVSLCVAGGIGVTPFASILNTLLDDWKPYKLRRLYFIWVCRDIQSFQWFADLLCVLHNKFWQENRPDFVNIQLYLSQTDGIQKIIGEKYHTLNSRLFIGRPRWKLLFDEIAKCNRGKTVGVFCCGPSSISKTLHSLSNRNNSYGTKFEYNKESFS
3 | no binding | TRAF6 (mouse, endogenous) (protein, UniProt P70196 1-530) MSLLNCENSCGSSQSSSDCCAAMAASCSAAVKDDSVSGSASTGNLSSSFMEEIQGYDVEFDPPLESKYECPICLMALREAVQTPCGHRFCKACIIKSIRDAGHKCPVDNEILLENQLFPDNFAKREILSLTVKCPNKGCLQKMELRHLEDHQVHCEFALVNCPQCQRPFQKCQVNTHIIEDCPRRQVSCVNCAVSMAYEEKEIHDQSCPLANIICEYCGTILIREQMPNHYDLDCPTAPIPCTFSVFGCHEKMQRNHLARHLQENTQLHMRLLAQAVHNVNLALRPCDAASPSRGCRPEDPNYEETIKQLESRLVRQDHQIRELTAKMETQSMYVGELKRTIRTLEDKVAEMEAQQCNGIYIWKIGNFGMHLKSQEEERPVVIHSPGFYTGRPGYKLCMRLHLQLPTAQRCANYISLFVHTMQGEYDSHLPWPFQGTIRLTILDQSEALIRQNHEEVMDAKPELLAFQRPTIPRNPKGFGYVTFMHLEALRQGTFIKDDTLLVRCEVSTRFDMGGLRKEGFQPRSTDAGV
4 | binds | NOX2/gp91phox (mouse, endogenous) (protein, UniProt Q61093 1-570) MGNWAVNEGLSIFVILVWLGLNVFLFINYYKVYDDGPKYNYTRKLLGSALALARAPAACLNFNCMLILLPVCRNLLSFLRGSSACCSTRIRRQLDRNLTFHKMVAWMIALHTAIHTIAHLFNVEWCVNARVGISDRYSIALSDIGDNENEEYLNFAREKIKNPEGGLYVAVTRLAGITGIVITLCLILIITSSTKTIRRSYFEVFWYTHHLFVIFFIGLAIHGAERIVRGQTAESLEEHNLDICADKIEEWGKIKECPVPKFAGNPPMTWKWIVGPMFLYLCERLVRFWRSQQKVVITKVVTHPFKTIELQMKKKGFKMEVGQYIFVKCPKVSKLEWHPFTLTSAPEEDFFSIHIRIVGDWTEGLFNACGCDKQEFQDAWKLPKIAVDGPFGTASEDVFSYEVVMLVGAGIGVTPFASILKSVWYKYCDNATSLKLKKIYFYWLCRDTHAFEWFADLLQLLETQMQERNNANFLSYNIYLTGWDESQANHFAVHHDEEKDVITGLKQKTLYGRPNWDNEFKTIASEHPNTTIGVFLCGPEALAETLSKQSISNSESGPRGVHFIFNKENF
5 | binds | Run/cysteine-rich-domain-containing Beclin1-interacting autophagy protein (Rubicon) (mouse, endogenous) (protein, UniProt Q80U62 1-956) MRPEGAGMDLGGGDGERLLEKSRREHWQLLGNLKTTVEGLVSANCPNVWSKYGGLERLCRDMQNILYHGLIHDQVCCRQADYWQFVKDIRWLSPHSALHVEKFISLHESDQSDTDSVSERAVAELWLQHSLQCHCLSAQLRPLLGDRQYIRKFYTETAFLLSDAHVTAMLQCLEAVEQNNPRLLAQIDASMFARKQESPLLVTKSQSLTALPGSTYTPPASYAQHSYFGSSSSLQSMPQSSHSSERRSTSFSLSGPSWQPQEDRECLSPAETQTTPAPLPSDSTLAQDSPLTAQEMSDSTLTSPLEASWVSSQNDSPSDVSEGPEYLAIGNPAPHGRTASCESHSSNGESSSSHLFSSSSSQKLESAASSLGDQEEGRQSQAGSVLRRSSFSEGQTAPVASGTKKSHIRSHSDTNIASRGAAGGPRNITIIVEDPIAEGGQYLCSGEGMFRRPSEGQSLISYLSEQDFGSCADLEKENAHFSISESLIAAIELMKCNMMSQCLEEEEVEEEDSDREIQELKQKIRLRRQQIRTKNLLPAYRETENGSFRVTSSSSQFSSRDSTQLSESGSAEDADDLEIQDADIRRSAVSNGKSSFSQNLSHCFLHSTSAEAVAMGLLKQFEGMQLPAASELEWLVPEHDAPQKLLPIPDSLPISPDDGQHADIYKLRIRVRGNLEWAPPRPQIIFNVHPAPTRKIAVAKQNYRCAGCGIRTDPDYIKRLRYCEYLGKYFCQCCHENAQMVVPSRILRKWDFSKYYVSNFSKDLLLKIWNDPLFNVQDINSALYRKVKLLNQVRLLRVQLYHMKNMFKTCRLAKELLDSFDVVPGHLTEDLHLYSLSDLTATKKGELGPRLAELTRAGAAHVERCMLCQAKGFICEFCQNEEDVIFPFELHKCRTCEECKACYHKTCFKSGRCPRCERLQARRELLAKQSLESYLSDYEEEPTEALALEATVLETT

Each molecule was assayed against T2, p22phox (human, endogenous) (human (endogenous in monocytes and in synoviocytes of RA patients)) (assay: co-IP; endogenous proteins, LPS-primed synoviocytes from patients with RA (or OA) treated with TIPTP, then activated with ATP; IP with anti-p22phox or anti-Rubicon, immunoblot (Fig. 6c, Supplemental Fig. 7)).

Row | binding | Molecule
6 | binds | NOX5 (human, endogenous) (protein, UniProt Q96PH1 1-765) MNTSGDPAQTGPEGCRGTMSAEEDARWLRWVTQQFKTIAGEDGEISLQEFKAALHVKESFFAERFFALFDSDRSGTITLQELQEALTLLIHGSPMDKLKFLFQVYDIDVCARQGASAGTEWGAGAGPHWASSPLGTGSGSIDPDELRTVLQSCLRESAISLPDEKLDQLTLALFESADADGNGAITFEELRDELQRFPGVMENLTISAAHWLTAPAPRPRPRRPRQLTRAYWHNHRSQLFCLATYAGLHVLLFGLAASAHRDLGASVMVAKGCGQCLNFDCSFIAVLMLRRCLTWLRATWLAQVLPLDQNIQFHQLMGYVVVGLSLVHTVAHTVNFVLQAQAEASPFQFWELLLTTRPGIGWVHGSASPTGVALLLLLLLMFICSSSCIRRSGHFEVFYWTHLSYLLVWLLLIFHGPNFWKWLLVPGILFFLEKAIGLAVSRMAAVCIMEVNLLPSKVTHLLIKRPPFFHYRPGDYLYLNIPTIARYEWHPFTISSAPEQKDTIWLHIRSQGQWTNRLYESFKASDPLGRGSKRLSRSVTMRKSQRSSKGSEILLEKHKFCNIKCYIDGPYGTPTRRIFASEHAVLIGAGIGITPFASILQSIMYRHQKRKHTCPSCQHSWIEGVQDNMKLHKVDFIWINRDQRSFEWFVSLLTKLEMDQAEEAQYGRFLELHMYMTSALGKNDMKAIGLQMALDLLANKEKKDSITGLQTRTQPGRPDWSKVFQKVAAEKKGKVQVFFCGSPALAKVLKGHCEKFGFRFFQENF
7 | binds | NOX4 (human, endogenous) (protein, UniProt Q9NPH5 1-578) MAVSWRSWLANEGVKHLCLFIWLSMNVLLFWKTFLLYNQGPEYHYLHQMLGLGLCLSRASASVLNLNCSLILLPMCRTLLAYLRGSQKVPSRRTRRLLDKSRTFHITCGVTICIFSGVHVAAHLVNALNFSVNYSEDFVELNAARYRDEDPRKLLFTTVPGLTGVCMVVVLFLMITASTYAIRVSNYDIFWYTHNLFFVFYMLLTLHVSGGLLKYQTNLDTHPPGCISLNRTSSQNISLPEYFSEHFHEPFPEGFSKPAEFTQHKFVKICMEEPRFQANFPQTWLWISGPLCLYCAERLYRYIRSNKPVTIISVMSHPSDVMEIRMVKENFKARPGQYITLHCPSVSALENHPFTLTMCPTETKATFGVHLKIVGDWTERFRDLLLPPSSQDSEILPFIQSRNYPKLYIDGPFGSPFEESLNYEVSLCVAGGIGVTPFASILNTLLDDWKPYKLRRLYFIWVCRDIQSFRWFADLLCMLHNKFWQENRPDYVNIQLYLSQTDGIQKIIGEKYHALNSRLFIGRPRWKLLFDEIAKYNRGKTVGVFCCGPNSLSKTLHKLSNQNNSYGTRFEYNKESFS
8 | binds | NOX2 (human, endogenous) (protein, UniProt P04839 1-570) MGNWAVNEGLSIFVILVWLGLNVFLFVWYYRVYDIPPKFFYTRKLLGSALALARAPAACLNFNCMLILLPVCRNLLSFLRGSSACCSTRVRRQLDRNLTFHKMVAWMIALHSAIHTIAHLFNVEWCVNARVNNSDPYSVALSELGDRQNESYLNFARKRIKNPEGGLYLAVTLLAGITGVVITLCLILIITSSTKTIRRSYFEVFWYTHHLFVIFFIGLAIHGAERIVRGQTAESLAVHNITVCEQKISEWGKIKECPIPQFAGNPPMTWKWIVGPMFLYLCERLVRFWRSQQKVVITKVVTHPFKTIELQMKKKGFKMEVGQYIFVKCPKVSKLEWHPFTLTSAPEEDFFSIHIRIVGDWTEGLFNACGCDKQEFQDAWKLPKIAVDGPFGTASEDVFSYEVVMLVGAGIGVTPFASILKSVWYKYCNNATNLKLKKIYFYWLCRDTHAFEWFADLLQLLESQMQERNNAGFLSYNIYLTGWDESQANHFAVHHDEEKDVITGLKQKTLYGRPNWDNEFKTIASQHPNTRIGVFLCGPEALAETLSKQSISNSESGPRGVHFIFNKENF
